Values are animals surviving of animals treated; these mice carried no tumour. Counts of survivors are from the toxicity check (mostly the fifth day) where no day follows; animals may have died later. Schedules are NCI's codes, taken here to give the interval after Q, in days (D) or hours (H), and the number of doses after X.

The test system of this test is B6D2F1 mice, nontumored toxicity test, survival. Description: NCI In Vivo Anticancer Drug Screen. Data for tumor model Nontumored Animals (Toxicity Test) in B6D2F1 (BDF1) mice.

As for `CSCCCNC(=O)c1csc(-c2csc(CCNC(=O)c3ccccc3)n2)n1`, the survivor count is, setting by setting: (dose: 6.25 mg/kg/injection, schedule: Q01DX011 (ip), vehicle: saline) 6 of 6; (dose: 12.5 mg/kg/injection, schedule: Q01DX011 (ip), vehicle: saline) 6 of 6; (dose: 25.0 mg/kg/injection, schedule: Q01DX011 (ip), vehicle: saline) 6 of 6; (dose: 50.0 mg/kg/injection, schedule: Q01DX011 (ip), vehicle: saline) 6 of 6; (dose: 100.0 mg/kg/injection, schedule: Q01DX011 (ip), vehicle: saline) 6 of 6; (dose: 200.0 mg/kg/injection, schedule: Q01DX011 (ip), vehicle: saline) 6 of 6. For the same compound, the survivor count (dose: 400.0 mg/kg/injection, schedule: Q01DX011 (ip), vehicle: saline) was 6 of 6.

In the case of `OCCO`, the survivor count was 10 of 10 (dose: 72.0 mg/kg/injection, schedule: Q01DX001 (ip), vehicle: other); 10 of 10 (dose: 102.0 mg/kg/injection, schedule: Q01DX001 (ip), vehicle: other); 10 of 10 (dose: 153.0 mg/kg/injection, schedule: Q01DX001 (ip), vehicle: other); 10 of 10 (dose: 204.0 mg/kg/injection, schedule: Q01DX001 (ip), vehicle: other); 10 of 10 (dose: 305.0 mg/kg/injection, schedule: Q01DX001 (ip), vehicle: other); 10 of 10 (dose: 408.0 mg/kg/injection, schedule: Q01DX001 (ip), vehicle: other). The survivor count is listed as 10 of 10 (dose: 0.6 grams/kg/injection, schedule: Q01DX001 (ip), vehicle: other); 10 of 10 (dose: 610.0 mg/kg/injection, schedule: Q01DX001 (ip), vehicle: other); 10 of 10 (dose: 815.0 mg/kg/injection, schedule: Q01DX001 (ip), vehicle: other); 9 of 10 (dose: 1219.0 mg/kg/injection, schedule: Q01DX001 (ip), vehicle: other); 10 of 10 (dose: 1.3 grams/kg/injection, schedule: Q01DX001 (ip), vehicle: other); 8 of 10 (dose: 1630.0 mg/kg/injection, schedule: Q01DX001 (ip), vehicle: other). In addition, the survivor count by setting is: (dose: 2.5 grams/kg/injection, schedule: Q01DX001 (ip), vehicle: other) 10 of 10; (dose: 5.0 grams/kg/injection, schedule: Q01DX001 (ip), vehicle: other) 10 of 10; (dose: 5.0 grams/kg/injection, schedule: Q01DX002 (ip), vehicle: other) 9 of 10; (dose: 5.0 grams/kg/injection, schedule: Q01DX003 (ip), vehicle: other) 10 of 10; (dose: 5.0 grams/kg/injection, schedule: Q01DX004 (ip), vehicle: other) 10 of 10; (dose: 5.0 grams/kg/injection, schedule: Q01DX005 (ip), vehicle: other) 9 of 10. For the same compound, the survivor count (dose: 5.0 grams/kg/injection, schedule: Q01DX006 (ip), vehicle: other) was 10 of 10; the survivor count (dose: 5.0 grams/kg/injection, schedule: Q01DX007 (ip), vehicle: other) is given as 10 of 10; the survivor count (dose: 5.0 grams/kg/injection, schedule: Q01DX008 (ip), vehicle: other) is on record as 3 of 10; the survivor count (dose: 5.0 grams/kg/injection, schedule: Q01DX009 (ip), vehicle: other) is 5 of 10.

In the case of `COC(C(=O)C(O)C(C)O)C1CC2C=C3C=C(OC4CC(OC5CC(O)C(OC)C(C)O5)C(OC(C)=O)C(C)O4)C(C)C(=O)C3=C(O)C2=C(O)C1OC1CC(OC2CC(OC3CC(C)(O)C(OC(=O)C(C)C)C(C)O3)C(O)C(C)O2)C(O)C(C)O1` (stereo not drawn), the survivor count by setting is: (dose: 31.2 micrograms/kg/injection, schedule: Q01DX001 (ip), vehicle: saline) 8 of 8; (dose: 31.2 micrograms/kg/injection, schedule: Q01DX009 (ip), vehicle: saline) 8 of 8; (dose: 31.2 micrograms/kg/injection, schedule: Q04DX003 (ip), vehicle: saline) 8 of 8; (dose: 31.2 micrograms/kg/injection, schedule: Q08DX002 (ip), vehicle: saline) 8 of 8; (dose: 62.5 micrograms/kg/injection, schedule: Q01DX001 (ip), vehicle: saline) 8 of 8; (dose: 62.5 micrograms/kg/injection, schedule: Q01DX009 (ip), vehicle: saline) 7 of 8. Further, the survivor count is given as 8 of 8 (dose: 62.5 micrograms/kg/injection, schedule: Q04DX003 (ip), vehicle: saline); 8 of 8 (dose: 62.5 micrograms/kg/injection, schedule: Q08DX002 (ip), vehicle: saline); 7 of 8 (dose: 125.0 micrograms/kg/injection, schedule: Q01DX001 (ip), vehicle: saline); 6 of 8 (dose: 125.0 micrograms/kg/injection, schedule: Q01DX009 (ip), vehicle: saline); 8 of 8 (dose: 125.0 micrograms/kg/injection, schedule: Q04DX003 (ip), vehicle: saline); 8 of 8 (dose: 125.0 micrograms/kg/injection, schedule: Q08DX002 (ip), vehicle: saline). Moreover, the survivor count is on record as 8 of 8 (dose: 250.0 micrograms/kg/injection, schedule: Q01DX001 (ip), vehicle: saline); 5 of 8 (dose: 250.0 micrograms/kg/injection, schedule: Q01DX009 (ip), vehicle: saline); 8 of 8 (dose: 250.0 micrograms/kg/injection, schedule: Q04DX003 (ip), vehicle: saline); 8 of 8 (dose: 250.0 micrograms/kg/injection, schedule: Q08DX002 (ip), vehicle: saline); 6 of 8 (dose: 500.0 micrograms/kg/injection, schedule: Q01DX001 (ip), vehicle: saline); 4 of 8 (dose: 500.0 micrograms/kg/injection, schedule: Q01DX009 (ip), vehicle: saline). Further, the survivor count (dose: 500.0 micrograms/kg/injection, schedule: Q04DX003 (ip), vehicle: saline) was 6 of 8; the survivor count (dose: 500.0 micrograms/kg/injection, schedule: Q08DX002 (ip), vehicle: saline) was 3 of 8; the survivor count (dose: 1000.0 micrograms/kg/injection, schedule: Q01DX001 (ip), vehicle: saline) is listed as 5 of 8; the survivor count (dose: 1000.0 micrograms/kg/injection, schedule: Q01DX009 (ip), vehicle: saline) is listed as 0 of 8; the survivor count (dose: 1000.0 micrograms/kg/injection, schedule: Q04DX003 (ip), vehicle: saline) is 6 of 8; the survivor count (dose: 1000.0 micrograms/kg/injection, schedule: Q08DX002 (ip), vehicle: saline) is 8 of 8.

Source of the values: PubChem BioAssay AID186 (DTP/NCI, 2004).
